Source: US4528290A, “Stimulating dopamine D-1 receptors” (Eli Lilly and Company, priority 1984, dated 1985)

Chains of the proteins cited; added tags and fusions are not shown.
UniProt P18901, whole entry: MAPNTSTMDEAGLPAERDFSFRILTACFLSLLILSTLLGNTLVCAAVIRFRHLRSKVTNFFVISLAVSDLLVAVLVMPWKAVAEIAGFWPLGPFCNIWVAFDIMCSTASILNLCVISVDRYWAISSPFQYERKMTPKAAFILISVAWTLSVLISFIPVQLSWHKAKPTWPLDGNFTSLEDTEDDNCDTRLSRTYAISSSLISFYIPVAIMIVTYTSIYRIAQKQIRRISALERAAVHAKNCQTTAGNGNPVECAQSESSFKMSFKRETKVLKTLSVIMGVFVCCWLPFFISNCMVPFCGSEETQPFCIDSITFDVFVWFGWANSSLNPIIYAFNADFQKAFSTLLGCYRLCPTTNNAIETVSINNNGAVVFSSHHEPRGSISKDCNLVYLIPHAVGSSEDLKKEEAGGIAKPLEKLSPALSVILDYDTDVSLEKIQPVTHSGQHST

molecular target: dopamine D-1 receptors (adenylate cyclase in rat striatal membrane) (Rattus norvegicus, UniProt P18901); assay: biochemical; conditions: read-out: Cyclic AMP Formation as a percent of control

In order of rising remaining activity at 50 µM:
1. CCCN1CCC[C@@H]2Cc3[nH]ncc3C[C@H]21 [4aR, 8aR enantiomer, 4aR,8aR-5-n-propyl-4,4a,5,6,7,8,8a,9-octahydro-1H(and 2H)-pyrazolo[4,3-g]-quinoline]  114 ± 10.4%
2. CCCN1CCC[C@@H]2Cc3[nH]ncc3C[C@H]21 (relative stereo) [Racemate, trans-(±)-5-n-propyl-4,4a,5,6,7,8,8a,9-octahydro-1H(and 2H)-pyrazolo[4,3-g]quinoline]  116 ± 13.3%
3. CCCN1CCC[C@H]2Cc3[nH]ncc3C[C@@H]21 [4aS, 8aS enantiomer, 4aS,8aS-5-n-propyl-4,4a,5,6,7,8,8a,9-octahydro-1H(and 2H)-pyrazolo[3,4-g]quinoline]  142 ± 9.3%
